Results are given in words; binding and its absence hold for the method and conditions named. In cells and extracts the contact can be indirect. Some binding calls cover weakened binding; strength is not graded here. For part of these data: Tags and fused reporters may be left off the sequences shown.

Amino acid sequences for entries named in this document (tags omitted). A change or cut given only in a name is not applied to a line headed by its entry.
UniProt O15169: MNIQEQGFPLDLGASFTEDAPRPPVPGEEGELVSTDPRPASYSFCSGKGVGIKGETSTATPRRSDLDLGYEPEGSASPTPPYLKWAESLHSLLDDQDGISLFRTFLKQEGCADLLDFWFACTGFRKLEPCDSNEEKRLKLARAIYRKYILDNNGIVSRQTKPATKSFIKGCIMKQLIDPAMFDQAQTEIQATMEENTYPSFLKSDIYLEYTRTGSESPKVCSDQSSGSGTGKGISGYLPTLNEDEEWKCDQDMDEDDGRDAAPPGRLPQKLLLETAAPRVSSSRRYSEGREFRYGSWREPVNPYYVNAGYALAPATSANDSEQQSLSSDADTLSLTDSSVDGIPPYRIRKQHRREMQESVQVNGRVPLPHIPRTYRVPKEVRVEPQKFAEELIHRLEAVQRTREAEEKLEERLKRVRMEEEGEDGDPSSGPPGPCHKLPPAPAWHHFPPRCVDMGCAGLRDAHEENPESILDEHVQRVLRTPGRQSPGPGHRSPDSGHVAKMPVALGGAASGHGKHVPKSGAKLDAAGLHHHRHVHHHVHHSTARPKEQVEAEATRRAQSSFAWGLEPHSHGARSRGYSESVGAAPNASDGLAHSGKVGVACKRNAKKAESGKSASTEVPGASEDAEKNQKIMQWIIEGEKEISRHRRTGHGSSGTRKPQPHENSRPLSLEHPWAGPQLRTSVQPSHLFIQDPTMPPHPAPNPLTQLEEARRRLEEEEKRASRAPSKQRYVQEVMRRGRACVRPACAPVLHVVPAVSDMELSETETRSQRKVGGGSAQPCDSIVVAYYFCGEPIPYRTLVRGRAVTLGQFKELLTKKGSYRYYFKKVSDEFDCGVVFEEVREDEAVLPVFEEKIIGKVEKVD

The target of assay [1] is T1, IRF3 (as used in the co-immunoprecipitations of the supplementary figures) (UniProt Q14653).
T1 sequence: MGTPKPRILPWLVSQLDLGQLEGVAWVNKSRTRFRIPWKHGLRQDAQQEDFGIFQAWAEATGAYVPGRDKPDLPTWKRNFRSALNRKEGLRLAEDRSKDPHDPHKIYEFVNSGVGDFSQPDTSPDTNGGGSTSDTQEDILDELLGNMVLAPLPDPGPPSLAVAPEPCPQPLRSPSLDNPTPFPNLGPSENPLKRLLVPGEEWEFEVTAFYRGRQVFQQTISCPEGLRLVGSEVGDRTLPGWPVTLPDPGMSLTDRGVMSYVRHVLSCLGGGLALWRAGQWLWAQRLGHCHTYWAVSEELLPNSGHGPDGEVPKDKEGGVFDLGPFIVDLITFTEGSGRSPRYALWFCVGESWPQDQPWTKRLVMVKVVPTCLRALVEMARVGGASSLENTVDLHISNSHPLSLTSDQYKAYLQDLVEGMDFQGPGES
As to the kind of experiment: co-IP.

Assay [2] concerns the target T2, Flag-IRF3 (UniProt Q14653).
T2 sequence: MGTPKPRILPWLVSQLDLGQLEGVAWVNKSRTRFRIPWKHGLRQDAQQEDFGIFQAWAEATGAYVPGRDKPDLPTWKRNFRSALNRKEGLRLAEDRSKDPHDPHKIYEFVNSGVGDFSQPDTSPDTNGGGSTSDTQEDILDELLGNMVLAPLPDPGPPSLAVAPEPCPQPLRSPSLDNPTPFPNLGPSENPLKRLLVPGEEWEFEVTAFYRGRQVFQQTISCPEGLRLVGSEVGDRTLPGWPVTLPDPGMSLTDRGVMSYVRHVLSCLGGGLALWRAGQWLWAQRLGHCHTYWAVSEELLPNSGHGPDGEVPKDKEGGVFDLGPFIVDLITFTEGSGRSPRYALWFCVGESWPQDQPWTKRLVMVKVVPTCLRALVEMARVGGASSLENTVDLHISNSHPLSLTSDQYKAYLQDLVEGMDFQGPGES
As to the kind of experiment: co-IP; HEK293T cells transfected with tagged plasmids for 36 h; lysis buffer 50 mM HEPES pH 7.4, 150 mM NaCl, 5 mM EDTA, 0.1% NP40; anti-Flag M2 or anti-c-myc agarose overnight at 4 °C; immunoblot; in some panels with Myc-AXIN1 co-expressed or 12 μM KYA1797K for 12 h.

Assay [3] addresses T3, Flag-TBK1 (TANK-binding kinase 1) (UniProt Q9UHD2).
T3 sequence: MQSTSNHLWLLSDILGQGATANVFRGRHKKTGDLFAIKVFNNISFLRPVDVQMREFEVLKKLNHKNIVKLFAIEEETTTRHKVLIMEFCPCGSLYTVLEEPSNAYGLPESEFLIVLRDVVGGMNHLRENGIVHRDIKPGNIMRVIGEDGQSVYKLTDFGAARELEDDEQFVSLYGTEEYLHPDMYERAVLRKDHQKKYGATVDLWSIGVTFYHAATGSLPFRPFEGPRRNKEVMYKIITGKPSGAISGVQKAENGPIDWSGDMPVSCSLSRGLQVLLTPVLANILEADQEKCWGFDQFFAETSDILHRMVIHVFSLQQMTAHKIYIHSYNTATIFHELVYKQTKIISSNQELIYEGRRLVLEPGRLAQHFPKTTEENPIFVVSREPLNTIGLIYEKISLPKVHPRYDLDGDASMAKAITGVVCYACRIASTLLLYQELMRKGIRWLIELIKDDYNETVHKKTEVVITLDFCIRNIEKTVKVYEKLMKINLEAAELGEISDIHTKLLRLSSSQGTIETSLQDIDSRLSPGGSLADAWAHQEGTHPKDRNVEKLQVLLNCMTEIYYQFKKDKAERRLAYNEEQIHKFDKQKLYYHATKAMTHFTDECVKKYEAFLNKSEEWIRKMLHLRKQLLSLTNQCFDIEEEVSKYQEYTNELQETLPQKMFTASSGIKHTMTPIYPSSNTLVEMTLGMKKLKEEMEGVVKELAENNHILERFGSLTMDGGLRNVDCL
The assay is described as above.

Assay [4] concerns the target Flag-AXIN1 (axis inhibition protein 1) (UniProt O15169). The description is as above.
The target of assay [5] is Flag-p62 (UniProt Q13501). The assay is described as above.
Assay [6] has as its target AXIN1 (as used in the co-immunoprecipitations of the supplementary figures) (UniProt O15169). Put plainly: co-IP.
Assay [7] deals with p62 (as used in the co-immunoprecipitations of the supplementary figures) (UniProt Q13501). As to the kind of experiment: co-IP.
The target in assay [8] is endogenous p62 (human (endogenous in THP-1)) (UniProt Q13501). As to the kind of experiment: co-IP; endogenous proteins; 8 × 10^6 THP-1 cells in 1 mL lysis buffer (50 mM HEPES pH 7.4, 150 mM NaCl, 5 mM EDTA, 0.1% NP40).

Consider “AXIN1 N-terminus (aa 1–211) (from UniProt O15169 1-211) (domain or fragment)”, for which the binding entry in assay [1] is “binds”. In the case of Myc-AXIN1 (from UniProt O15169 1-862), the binding result in assay [2] was “binds”.

With HA-AXIN1 (from UniProt O15169 1-862), in assay [3], the binding entry was “binds”.

B1: HA-IRF3 (interferon regulatory factor 3) (protein, UniProt Q14653 1-427)
chain: MGTPKPRILPWLVSQLDLGQLEGVAWVNKSRTRFRIPWKHGLRQDAQQEDFGIFQAWAEATGAYVPGRDKPDLPTWKRNFRSALNRKEGLRLAEDRSKDPHDPHKIYEFVNSGVGDFSQPDTSPDTNGGGSTSDTQEDILDELLGNMVLAPLPDPGPPSLAVAPEPCPQPLRSPSLDNPTPFPNLGPSENPLKRLLVPGEEWEFEVTAFYRGRQVFQQTISCPEGLRLVGSEVGDRTLPGWPVTLPDPGMSLTDRGVMSYVRHVLSCLGGGLALWRAGQWLWAQRLGHCHTYWAVSEELLPNSGHGPDGEVPKDKEGGVFDLGPFIVDLITFTEGSGRSPRYALWFCVGESWPQDQPWTKRLVMVKVVPTCLRALVEMARVGGASSLENTVDLHISNSHPLSLTSDQYKAYLQDLVEGMDFQGPGES
As to B1, the binding result in assay [4] is on record as “binds”.

B2: Myc-IRF3 (protein, UniProt Q14653 1-427)
chain: MGTPKPRILPWLVSQLDLGQLEGVAWVNKSRTRFRIPWKHGLRQDAQQEDFGIFQAWAEATGAYVPGRDKPDLPTWKRNFRSALNRKEGLRLAEDRSKDPHDPHKIYEFVNSGVGDFSQPDTSPDTNGGGSTSDTQEDILDELLGNMVLAPLPDPGPPSLAVAPEPCPQPLRSPSLDNPTPFPNLGPSENPLKRLLVPGEEWEFEVTAFYRGRQVFQQTISCPEGLRLVGSEVGDRTLPGWPVTLPDPGMSLTDRGVMSYVRHVLSCLGGGLALWRAGQWLWAQRLGHCHTYWAVSEELLPNSGHGPDGEVPKDKEGGVFDLGPFIVDLITFTEGSGRSPRYALWFCVGESWPQDQPWTKRLVMVKVVPTCLRALVEMARVGGASSLENTVDLHISNSHPLSLTSDQYKAYLQDLVEGMDFQGPGES
As for B2, the binding result in assay [5] is listed as “binds”.

B3: GFP-IRF3 (protein, UniProt Q14653 1-427)
chain: MGTPKPRILPWLVSQLDLGQLEGVAWVNKSRTRFRIPWKHGLRQDAQQEDFGIFQAWAEATGAYVPGRDKPDLPTWKRNFRSALNRKEGLRLAEDRSKDPHDPHKIYEFVNSGVGDFSQPDTSPDTNGGGSTSDTQEDILDELLGNMVLAPLPDPGPPSLAVAPEPCPQPLRSPSLDNPTPFPNLGPSENPLKRLLVPGEEWEFEVTAFYRGRQVFQQTISCPEGLRLVGSEVGDRTLPGWPVTLPDPGMSLTDRGVMSYVRHVLSCLGGGLALWRAGQWLWAQRLGHCHTYWAVSEELLPNSGHGPDGEVPKDKEGGVFDLGPFIVDLITFTEGSGRSPRYALWFCVGESWPQDQPWTKRLVMVKVVPTCLRALVEMARVGGASSLENTVDLHISNSHPLSLTSDQYKAYLQDLVEGMDFQGPGES
With B3, the binding result in assay [5] is on record as “binds”.

B4: IRF3 (as used in the co-immunoprecipitations of the supplementary figures) (protein, UniProt Q14653 1-427)
chain: MGTPKPRILPWLVSQLDLGQLEGVAWVNKSRTRFRIPWKHGLRQDAQQEDFGIFQAWAEATGAYVPGRDKPDLPTWKRNFRSALNRKEGLRLAEDRSKDPHDPHKIYEFVNSGVGDFSQPDTSPDTNGGGSTSDTQEDILDELLGNMVLAPLPDPGPPSLAVAPEPCPQPLRSPSLDNPTPFPNLGPSENPLKRLLVPGEEWEFEVTAFYRGRQVFQQTISCPEGLRLVGSEVGDRTLPGWPVTLPDPGMSLTDRGVMSYVRHVLSCLGGGLALWRAGQWLWAQRLGHCHTYWAVSEELLPNSGHGPDGEVPKDKEGGVFDLGPFIVDLITFTEGSGRSPRYALWFCVGESWPQDQPWTKRLVMVKVVPTCLRALVEMARVGGASSLENTVDLHISNSHPLSLTSDQYKAYLQDLVEGMDFQGPGES
Regarding B4, the binding result in assay [6] and in assay [7] was “binds” in each case.

B5: endogenous IRF3 (protein, UniProt Q14653 1-427)
chain: MGTPKPRILPWLVSQLDLGQLEGVAWVNKSRTRFRIPWKHGLRQDAQQEDFGIFQAWAEATGAYVPGRDKPDLPTWKRNFRSALNRKEGLRLAEDRSKDPHDPHKIYEFVNSGVGDFSQPDTSPDTNGGGSTSDTQEDILDELLGNMVLAPLPDPGPPSLAVAPEPCPQPLRSPSLDNPTPFPNLGPSENPLKRLLVPGEEWEFEVTAFYRGRQVFQQTISCPEGLRLVGSEVGDRTLPGWPVTLPDPGMSLTDRGVMSYVRHVLSCLGGGLALWRAGQWLWAQRLGHCHTYWAVSEELLPNSGHGPDGEVPKDKEGGVFDLGPFIVDLITFTEGSGRSPRYALWFCVGESWPQDQPWTKRLVMVKVVPTCLRALVEMARVGGASSLENTVDLHISNSHPLSLTSDQYKAYLQDLVEGMDFQGPGES
For B5, the binding result in assay [8] was “binds”.

For the origin of these results see article PMC11464762, “AXIN1 boosts antiviral response through IRF3 stabilization and induced phase separation” (Signal Transduction and Targeted Therapy, 2024).
